# In PubChem BioAssay AID2283221 (EPA ToxCast):
# Inconclusive means that the source gave no clear call. Such entries were picked first, then a sample of the others. A potency beside an inconclusive call is a rough fit, not a confirmed value. Activity calls are given as the source filed them. The calls were made as follows: active = hit-call score of the fitted dose curve at least 0.9, where 1 is the maximum; inconclusive = response in the unintended direction; inactive = score below 0.9.
# Molecular target: human Spleen Associated Tyrosine Kinase (Syk), SYK (gene 6850) (UniProt P43405)
# Experiment: NVS_ENZ_hSyk: NovaScreen (NVS) Enzymatic Assay for human Spleen Associated Tyrosine Kinase (Syk)
# Description: NVS_ENZ_hSyk is a biochemical, single-readout assay that uses extracted gene-proteins in a cell-free assay. Measurements were taken 1 hour after chemical dosing in a 96-well plate.NVS_ENZ_hSyk is one of one assay component(s) measured or calculated from the NVS_ENZ_hSyk assay. It is designed to make measurements of enzyme activity, a form of enzyme reporter, as detected with fluorescence intensity signals by Fluorescence and electrophoretic mobility shift technology.Data from the assay component NVS_ENZ_hSyk was analyzed into 1 assay endpoint. This assay endpoint, NVS_ENZ_hSyk, was analyzed in the positive analysis fitting direction relative to DMSO as the negative control and baseline of activity. Using a type of enzyme reporter, loss-of-signal activity can be used to understand changes in the enzymatic activity as they relate to the gene SYK. Furthermore, this assay endpoint can be referred to as a primary readout, because this assay has produced […] where this one serves a enzymatic activity function. To generalize the intended target to other relatable targets, this assay endpoint is annotated to the kinase intended target family, where the subfamily is non-receptor tyrosine kinase.
# Binding assays used specific radioligands (tritiated, iodinated) with non-radioactive competitive displacement ligands in agonist or antagonist protocols (as indicated) and various reference compounds and inhibitors to titrate specific binding to receptors and transporters. Most enzyme assays (CYPs, kinases, phosphatases, proteases, HDACs) used recombinant protein and specific substrates (fluorescence mostly, some colorimetric and radioactive) and inhibitors, followed by a biochemical separation of substrate and product. All assays for the biochemical HTS were initially run in duplicate at a single concentration (10 uM for CYP450 assays and 25 uM for all others). Assay-chemical combinations meeting a pre-defined threshold (e.g., 30% inhibition and other criteria defined below) were then run in singleton concentration-response format with maximum concentration of 20 uM for CYPs and 50 uM for all others. Each assay was run with positive and negative controls, and concurrent controls on every plate. The follow-up (secondary) screen tested active chemical-pairs in concentration series, as well as a few additional assays not tested in the primary screen, some selected negative inactives, and several cases re-run in the concentration series for confirmatory purposes.
Structure (SMILES),AC50,outcome
CO/N=C(/C1=NOCCO1)c1ccccc1Oc1ncnc(Oc2ccccc2Cl)c1F,inconclusive: 25 µM,–
Oc1ccc(Cl)cc1Cc1ccccc1,inconclusive: 0.192 µM,–
Oc1ccc(C(c2ccc(O)cc2)C(Cl)(Cl)Cl)cc1,inconclusive: 0.383 µM,–
O=C(Nc1ccc([N+](=O)[O-])cc1Cl)c1cc(Cl)ccc1O,inconclusive: 25 µM,–
CCCCCCC(C)OC(=O)COc1nc(F)c(Cl)c(N)c1Cl (stereo unspecified),inconclusive: 0.5 µM,–
CC[C@H](C)[C@H]1O[C@]2(C=C[C@@H]1C)C[C@@H]1C[C@@H](C/C=C(\C)[C@@H](O[C@H]3C[C@H](OC)[C@@H](O[C@H]4C[C@H](OC)[C@@H](NC)[C@H](C)O4)[C@H](C)O3)[C@@H](C)/C=C/C=C3\CO[C@@H]4[C@H](O)C(C)=C[C@@H](C(=O)O1)[C@]34O)O2,–,inactive
O=C(O)C1(C(=O)Nc2ccc(Cl)cc2Cl)CC1,active: 15.4 µM,–
CC[C@H](C)[C@H]1O[C@]2(C=C[C@@H]1C)C[C@@H]1C[C@@H](C/C=C(\C)[C@@H](O[C@H]3C[C@H](OC)[C@@H](O[C@H]4C[C@H](OC)[C@@H](O)[C@H](C)O4)[C@H](C)O3)[C@@H](C)/C=C/C=C3\CO[C@@H]4[C@H](O)C(C)=C[C@@H](C(=O)O1)[C@]34O)O2 (tested in a mixture with another compound),inconclusive: 4.96 µM,–
S=C(S)NCCNC(=S)S.[Mn+2].[S-]C([S-])=NCCN=C([S-])[S-].[Zn+2],active: 9.71 µM,–
COC(=O)N(C(=O)N1CO[C@@]2(C(=O)OC)Cc3cc(Cl)ccc3C2=N1)c1ccc(OC(F)(F)F)cc1,inconclusive: 0.0122 µM,–
CCOCN(C(=O)CCl)c1c(C)cccc1CC,–,inactive

# One compound at a time, from the list above.
# CC[C@H](C)[C@H]1O[C@]2(C=C[C@@H]1C)C[C@@H]1C[C@@H](C/C=C(\C)[C@@H](O[C@H]3C[C@H](OC)[C@@H](O[C@H]4C[C@H](OC)[C@@H](NC)[C@H](C)O4)[C@H](C)O3)[C@@H](C)/C=C/C=C3\CO[C@@H]4[C@H](O)C(C)=C[C@@H](C(=O)O1)[C@]34O)O2 in the list: outcome: inactive
# O=C(O)C1(C(=O)Nc2ccc(Cl)cc2Cl)CC1 in the list: AC50: active: 15.4 µM
